No constants are given. Whether binding was seen depends on the method and setting. Binding seen in cells or lysates may run through a third protein. Some entries that bind do so weakly or less than the wild type. One block for each substance: values may come before it.
Assays:
HA-USP5 = HA-USP5 (UniProt P45974); experiment: co-IP; exogenous Flag-TXNDC12 and HA-USP5 in HNSCC cells, both orientations; RIPA lysis, primary antibody overnight at 4 °C, magnetic beads, western blot
[1] = target: thioredoxin domain-containing protein 12 (TXNDC12), endogenous in HEK-293 cells (human (endogenous in HEK-293)) (UniProt O95881); experiment: co-IP; endogenous proteins in HEK-293 cells; RIPA lysis, primary antibody overnight at 4 °C, magnetic beads 6 h at 4 °C, western blot
[2] = target: USP5 in SCC-1 and SCC-23 cells (human (endogenous in SCC-1 and SCC-23)) (UniProt P45974); experiment: co-IP; SCC-1 and SCC-23 cells with TXNDC12 depletion (shTXNDC12) or TXNDC12 overexpression and their controls; RIPA lysis, primary antibody overnight at 4 °C, magnetic beads, western blot
Flag-TXNDC12 = Flag-TXNDC12 (UniProt O95881); experiment: co-IP; exogenous Flag-TXNDC12 and HA-USP5 in HNSCC cells, both orientations; RIPA lysis, primary antibody overnight at 4 °C, magnetic beads, western blot

By UniProt entry, the sequences of proteins in these tests, tags left out. Residues count along the entry.
UniProt P45974: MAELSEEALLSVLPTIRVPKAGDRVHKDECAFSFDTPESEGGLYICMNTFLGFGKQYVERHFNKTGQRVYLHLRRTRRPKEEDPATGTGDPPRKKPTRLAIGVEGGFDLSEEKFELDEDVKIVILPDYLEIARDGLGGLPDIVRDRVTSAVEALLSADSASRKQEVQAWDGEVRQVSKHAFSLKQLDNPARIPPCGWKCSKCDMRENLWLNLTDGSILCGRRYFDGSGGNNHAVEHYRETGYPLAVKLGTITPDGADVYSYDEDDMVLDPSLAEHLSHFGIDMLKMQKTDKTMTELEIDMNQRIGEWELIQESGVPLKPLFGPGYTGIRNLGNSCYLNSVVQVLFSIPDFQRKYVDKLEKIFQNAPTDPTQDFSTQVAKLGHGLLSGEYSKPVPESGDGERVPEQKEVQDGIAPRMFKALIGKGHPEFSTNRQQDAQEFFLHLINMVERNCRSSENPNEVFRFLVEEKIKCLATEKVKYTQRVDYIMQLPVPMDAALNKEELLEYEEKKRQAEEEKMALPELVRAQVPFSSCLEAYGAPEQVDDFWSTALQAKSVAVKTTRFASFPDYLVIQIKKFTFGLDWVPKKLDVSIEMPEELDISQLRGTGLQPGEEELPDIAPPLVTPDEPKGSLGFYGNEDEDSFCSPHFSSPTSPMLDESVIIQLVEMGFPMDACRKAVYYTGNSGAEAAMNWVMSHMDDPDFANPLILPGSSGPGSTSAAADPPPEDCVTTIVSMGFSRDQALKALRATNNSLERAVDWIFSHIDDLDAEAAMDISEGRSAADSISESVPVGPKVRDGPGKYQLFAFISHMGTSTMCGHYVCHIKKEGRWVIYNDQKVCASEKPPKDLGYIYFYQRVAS
UniProt O95881, residues 27-172: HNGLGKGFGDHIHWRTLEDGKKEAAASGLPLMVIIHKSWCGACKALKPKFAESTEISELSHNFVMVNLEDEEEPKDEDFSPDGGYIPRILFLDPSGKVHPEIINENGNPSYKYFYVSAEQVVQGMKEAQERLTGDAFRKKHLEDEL
UniProt P01106: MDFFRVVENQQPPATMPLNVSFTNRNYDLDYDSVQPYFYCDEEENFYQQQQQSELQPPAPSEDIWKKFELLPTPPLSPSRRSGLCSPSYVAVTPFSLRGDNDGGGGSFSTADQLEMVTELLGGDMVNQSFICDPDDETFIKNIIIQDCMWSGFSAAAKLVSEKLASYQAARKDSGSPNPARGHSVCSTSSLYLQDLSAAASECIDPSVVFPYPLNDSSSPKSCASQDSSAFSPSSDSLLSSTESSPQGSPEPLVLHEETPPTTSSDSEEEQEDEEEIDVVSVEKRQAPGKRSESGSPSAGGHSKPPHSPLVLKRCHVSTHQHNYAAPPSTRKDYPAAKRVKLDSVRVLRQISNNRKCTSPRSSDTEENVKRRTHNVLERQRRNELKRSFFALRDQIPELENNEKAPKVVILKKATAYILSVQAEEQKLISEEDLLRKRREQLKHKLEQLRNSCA

binding (HA-USP5): binds
Substance: Flag-TXNDC12 (from UniProt O95881 27-172)

binding [1]: binds
Substance: USP5, endogenous in HEK-293 cells (from UniProt P45974 1-858) (enzyme)

binding [2]: binds
Substance: c-Myc in SCC-1 and SCC-23 cells (from UniProt P01106 1-454)

binding (Flag-TXNDC12): binds
Substance: HA-USP5 (from UniProt P45974 1-858) (enzyme)

From article PMC12411639
